Source: patent US20100216734A1, “MODULATION OF NEUROGENESIS BY NOOTROPIC AGENTS” (BrainCells, Inc., priority 2006, published 2010)

System: human neural stem cells (hNSCs)
Assay: Neuronal differentiation of human neural stem cells (TUJ-1 staining)
Type: cell-based
Conditions: Neural stem cell, agent run independently, % of neuronal positive control, basal media subtracted, read-out: EC50 for neuronal differentiation, agent alone

- EC50: 320 µM
Structure (SMILES): CN1CCN(C2=Nc3cc(Cl)ccc3Nc3ccccc32)CC1 [clozapine]
